The assay has as its system L1210 leukemia ip in BDF1 mice, survival T/C. Put plainly: NCI In Vivo Anticancer Drug Screen. Data for tumor model L1210 Leukemia (intraperitoneal) in B6D2F1 (BDF1) mice. The settings on record: T/C endpoint: mean survival time, higher T/C = longer survival.
Setting [1] is: dose: 100.0 mg/kg/injection, schedule: Q01DX001 (ip), vehicle: carboxymethylcellulose (CMC).

The list is a part of this screen's results and no random one: it is rich in T/C values a quarter to a half above the control, in often repeated tests (any T/C) and in doses without a T/C. Other doses and runs of a compound stand elsewhere. T/C is the treated group as % of the vehicle group. Some doses have a count of surviving animals in place of a T/C: the source files T/C as zero there, which appears to mark a toxic dose or a test without result, not a measured value. Some survivor counts are full or nearly so, which does not show that the dose was tolerated: the source hardly ever lists a survival T/C far under the control, and the zero likely stands for such cases as well. Survivors were counted at the toxicity check, usually on the fifth day, unless a day is given; later deaths do not show. Schedules are NCI's codes, read here as Q, the interval in days (D) or hours (H), X, the number of doses. Some schedule codes hold Z or #, which are not explained here. Some doses were run more than once; the values are given in rising order. For survival time, this PubChem deposit counts one and a half times the control or more as active, and values a quarter to a half above the control carry no call in these data; other NCI protocols may use other cut-offs. Some T/C values carry the count of animals alive at the toxicity check (mostly the fifth day); where none is given, no animal had died by that day.

As for `CCCCCCCC(=O)[O][Pb]([CH2]C)([CH2]C)[CH2]C`, the survivor count (dose: 25.0 mg/kg/injection, schedule: Q04DX002 (ip), vehicle: DMSO) is given as 0 of 3; the survivor count (dose: 50.0 mg/kg/injection, schedule: Q04DX002 (ip), vehicle: DMSO) is recorded as 0 of 3; the survivor count (dose: 100.0 mg/kg/injection, schedule: Q04DX002 (ip), vehicle: DMSO) is 0 of 3; the survivor count (dose: 200.0 mg/kg/injection, schedule: Q04DX002 (ip), vehicle: DMSO) is listed as 0 of 3; the survivor count (dose: 400.0 mg/kg/injection, schedule: Q04DX002 (ip), vehicle: DMSO) was 0 of 3.
In the case of `NNc1nncc(-c2ccccc2)n1`, the survivor count by setting is: (dose: 37.0 mg/kg/injection, schedule: Q01DX001 (ip), vehicle: other) 3 of 6; (dose: 100.0 mg/kg/injection, schedule: Q01DX001 (ip), vehicle: other) 0 of 6; (dose: 200.0 mg/kg/injection, schedule: Q01DX001 (ip), vehicle: other) 0 of 6; (dose: 400.0 mg/kg/injection, schedule: Q01DX001 (ip), vehicle: other) 0 of 6. The T/C (dose: 50.0 mg/kg/injection, schedule: Q01DX001 (ip), vehicle: other) is 127 % of control [5 of 6 alive].
Turning to `CCCCC(=O)N/N=C/c1ccccc1OC`, under “dose: 400.0 mg/kg/injection, schedule: Q01DX001 (ip), vehicle: saline”, the survivor count is 0 of 4.
On to `N#CC1(O)CN2CCC1CC2` (configuration not stated), for which the survivor count reads like this: (dose: 25.0 mg/kg/injection, schedule: Q04DX003 (ip), vehicle: Klucel (hydroxypropylcellulose) (HPC)) 0 of 6; (dose: 50.0 mg/kg/injection, schedule: Q04DX003 (ip), vehicle: Klucel (hydroxypropylcellulose) (HPC)) 0 of 6; (dose: 75.0 mg/kg/injection, schedule: Q04DX003 (ip), vehicle: Klucel (hydroxypropylcellulose) (HPC)) 0 of 6; (dose: 150.0 mg/kg/injection, schedule: Q04DX003 (ip), vehicle: Klucel (hydroxypropylcellulose) (HPC)) 0 of 6; (dose: 300.0 mg/kg/injection, schedule: Q04DX003 (ip), vehicle: Klucel (hydroxypropylcellulose) (HPC)) 0 of 6.
For the molecule `CCOC(=O)n1ccn2cncc2c1=O`, the survivor count is 4 of 6 (dose: 200.0 mg/kg/injection, schedule: Q01DX009 (ip), vehicle: saline with Tween-80) and 0 of 6 (dose: 400.0 mg/kg/injection, schedule: Q01DX009 (ip), vehicle: saline with Tween-80).
As to `COC1=CC(=O)C2=C(C1=O)C1(C)CCCC(C)(COC(C)=O)C1CC2` (configuration not stated), the survivor count under setting [1] was 4 of 4.
As for `Cc1c(C(=O)O)cc2n(c1=O)Cc1cc3ccccc3nc1-2`, for the setting “dose: 400.0 mg/kg/injection, schedule: Q01DX009 (ip), vehicle: saline”, the survivor count is 1 of 6.
In the case of `CSc1nncc(=O)[nH]1.[Hg]`, the survivor count (dose: 20.0 mg/kg/injection, schedule: Q01DX001 (ip), vehicle: carboxymethylcellulose (CMC)) is on record as 2 of 4; the survivor count (dose: 40.0 mg/kg/injection, schedule: Q01DX001 (ip), vehicle: carboxymethylcellulose (CMC)) is listed as 1 of 4; the survivor count (dose: 50.0 mg/kg/injection, schedule: Q01DX001 (ip), vehicle: carboxymethylcellulose (CMC)) is reported as 0 of 4; the survivor count (dose: 80.0 mg/kg/injection, schedule: Q01DX001 (ip), vehicle: carboxymethylcellulose (CMC)) is on record as 0 of 4; the survivor count under setting [1] is recorded as 0 of 4; the survivor count (dose: 200.0 mg/kg/injection, schedule: Q01DX001 (ip), vehicle: carboxymethylcellulose (CMC)) is reported as 0 of 4. The survivor count (dose: 400.0 mg/kg/injection, schedule: Q01DX001 (ip), vehicle: carboxymethylcellulose (CMC)) is given as 0 of 4.
As for `CCC(C(=O)C(C)C(O)C(C)CCc1ccc(C)c(O)c1C(=O)O)C1OC(CC)(C2CCC(O)(CC)C(C)O2)CC1C` (configuration not stated), the survivor count (dose: 100.0 mg/kg/injection, schedule: Q04DX002 (ip), vehicle: saline) is recorded as 0 of 3 and the survivor count (dose: 200.0 mg/kg/injection, schedule: Q04DX002 (ip), vehicle: saline) is on record as 0 of 3.
As for `O=S(=O)(Nc1nccs1)c1ccc(N(CCCl)CCCl)cc1`, the survivor count by setting is: (dose: 100.0 mg/kg/injection, schedule: Q01DX009 (ip), vehicle: Klucel (hydroxypropylcellulose) (HPC)) 3 of 3; (dose: 200.0 mg/kg/injection, schedule: Q01DX009 (ip), vehicle: Klucel (hydroxypropylcellulose) (HPC)) 2 of 3.
`CCOP(=O)(C(O)C(Cl)(Cl)Cl)C(O)C(Cl)(Cl)Cl` (configuration not stated): for the setting “dose: 300.0 mg/kg/injection, schedule: Q04DX003 (ip), vehicle: saline with Tween-80”, the survivor count is reported as 6 of 6.
In the case of `NC(=S)N/N=C(\c1ccc(Br)cc1)C1CC1`, the survivor count (dose: 15.0 mg/kg/injection, schedule: Q01DX Z (ip), vehicle: carboxymethylcellulose (CMC)) was 0 of 6 and 2 of 6; the survivor count (dose: 30.0 mg/kg/injection, schedule: Q01DX Z (ip), vehicle: carboxymethylcellulose (CMC)) was 0 of 6; the survivor count (dose: 32.0 mg/kg/injection, schedule: Q01DX Z (oral), vehicle: carboxymethylcellulose (CMC)) is recorded as 0 of 6; the survivor count (dose: 60.0 mg/kg/injection, schedule: Q01DX Z (ip), vehicle: carboxymethylcellulose (CMC)) is 0 of 6; the survivor count (dose: 120.0 mg/kg/injection, schedule: Q01DX Z (ip), vehicle: carboxymethylcellulose (CMC)) was 0 of 6.
As for `CSC(=S)NN`, the survivor count is given as 1 of 3 (dose: 16.0 mg/kg/injection, schedule: Q04DX002 (ip), vehicle: saline) and 0 of 3 (dose: 32.0 mg/kg/injection, schedule: Q04DX002 (ip), vehicle: saline).
Regarding `CCCCCCC(=O)/C=C\c1ccc([N+](C)(C)C)cc1`, the survivor count is recorded as 0 of 6 (dose: 100.0 mg/kg/injection, schedule: Q01DX009 (sc), vehicle: steroid suspending solution); 2 of 6 (dose: 200.0 mg/kg/injection, schedule: Q01DX001 (sc), vehicle: steroid suspending solution); 0 of 6 (dose: 400.0 mg/kg/injection, schedule: Q01DX001 (sc), vehicle: steroid suspending solution).
As for `CN(N)C(=O)Nc1ccccc1[N+](=O)[O-]`, the survivor count (dose: 300.0 mg/kg/injection, schedule: Q01DX001 (ip), vehicle: carboxymethylcellulose (CMC)) is 2 of 6.
In the case of `CC(O)c1cc(Cl)ccc1Cl` (configuration not stated), the survivor count (dose: 200.0 mg/kg/injection, schedule: Q04DX003 (ip), vehicle: saline with Tween-80) was 0 of 6.
For `O=C1C2CCCC3CCCC(C(=O)N1NC1CCCCC1)C32` (configuration not stated), the survivor count (dose: 400.0 mg/kg/injection, schedule: Q04DX002 (ip), vehicle: saline with Tween-80) is 3 of 3.
For the molecule `CN(NC(=O)CC(=O)NN(C)C(=S)c1ccc(Cl)cc1)C(=S)c1ccc(Cl)cc1`, the survivor count runs as follows: (dose: 100.0 mg/kg/injection, schedule: Q01DX009 (ip), vehicle: gum acacia) 6 of 6; (dose: 100.0 mg/kg/injection, schedule: Q04DX003 (ip), vehicle: gum acacia) 6 of 6; (dose: 200.0 mg/kg/injection, schedule: Q01DX009 (ip), vehicle: gum acacia) 6 of 6; (dose: 400.0 mg/kg/injection, schedule: Q01DX009 (ip), vehicle: gum acacia) 6 of 6.
Regarding `O=C(Nc1ccc(C2=NCCN2)cc1)c1ccc(N=Nc2ccc(C(=O)Nc3ccc(C4=NCCN4)cc3)cc2)cc1`, the survivor count (dose: 500.0 mg/kg/injection, schedule: Q01DX Z (ip), vehicle: water) was 3 of 6.
Consider `[Cl][Pd]([Cl])([Cl])[Cl]`, for which the survivor count is 1 of 3 (dose: 200.0 mg/kg/injection, schedule: Q04DX003 (ip), vehicle: saline) and 0 of 3 (dose: 400.0 mg/kg/injection, schedule: Q04DX003 (ip), vehicle: saline).
Turning to `Clc1cccc(Cl)c1C[n+]1ccccc1`, the survivor count is recorded as 1 of 6 (dose: 37.5 mg/kg/injection, schedule: Q01DX001 (ip), vehicle: saline); 0 of 6 (dose: 75.0 mg/kg/injection, schedule: Q01DX001 (ip), vehicle: saline); 0 of 6 (dose: 150.0 mg/kg/injection, schedule: Q01DX001 (ip), vehicle: saline); 0 of 6 (dose: 300.0 mg/kg/injection, schedule: Q01DX001 (ip), vehicle: saline).
On to `CCCCCC(C)n1c(C)cc(=O)n1C(C)CCCCC` (configuration not stated), for which the survivor count (dose: 300.0 mg/kg/injection, schedule: Q01DX001 (ip), vehicle: other) was 0 of 6.

These data come from PubChem BioAssay AID248 (DTP/NCI, 2004).
